Some of these results come from one statement about several compounds together.
Columns and labels:
Assay type in all cases: in vivo
[1] = tested on: Spodoptera littoralis (Egyptian cotton leafworm); experiment: Spodoptera littoralis cotton leaf disc spray test; settings: application rate of 200 ppm; cotton leaf discs, L1 larvae; mortality, feeding behavior, growth regulation 3 days after treatment
[2] = tested on: Plutella xylostella (Diamond back moth); experiment: Plutella xylostella artificial diet test; settings: application rate of 200 ppm (concentration in well 18 ppm), L2 larvae, larval mortality and growth regulation after 6 days
[3] = tested on: Diabrotica balteata (Corn root worm); experiment: Diabrotica balteata artificial diet test; settings: application rate of 200 ppm (concentration in well 18 ppm), L2 larvae, larval mortality and growth regulation after 5 days
[4] = tested on: Heliothis virescens (Tobacco budworm); experiment: Heliothis virescens egg test on artificial diet; settings: application rate of 200 ppm (concentration in well 18 ppm); eggs 0-24 h old on artificial diet; egg mortality, larval mortality, growth regulation after 4 days
[5] = tested on: Thrips tabaci (Onion thrips); experiment: Thrips tabaci sunflower leaf disc spray test; settings: application rate of 200 ppm; sunflower leaf discs, population of mixed ages; mortality after 7 days

Compound	control of Spodoptera littoralis [1]	control of Plutella xylostella [2]	control of Diabrotica balteata [3]	control of Heliothis virescens [4]	control of Thrips tabaci [5]
O=C(NCCC(F)(F)F)c1ccc(C2=NOC(c3cc(Cl)cc(Cl)c3)(C(F)(F)F)C2)c2nsnc12 (centres unmarked) [Compound A6]	at least 80%	at least 80%	–	–	–
O=C(NCC(F)(F)F)c1ccc(C2=NOC(c3cc(Cl)cc(Cl)c3)(C(F)(F)F)C2)c2nsnc12 (centres unmarked) [Compound A2]	at least 80%	at least 80%	–	–	–
COCC(C)NC(=O)c1ccc(C2=NOC(c3cc(Cl)cc(Cl)c3)(C(F)(F)F)C2)c2nsnc12 (centres unmarked) [Compound A4]	–	at least 80%	–	–	–
CCCCNC(=O)c1ccc(C2=NOC(c3cc(Cl)cc(Cl)c3)(C(F)(F)F)C2)c2nsnc12 (centres unmarked) [Compound A1]	–	at least 80%	–	–	–
O=C(NCc1ccccc1)c1ccc(C2=NOC(c3cc(Cl)cc(Cl)c3)(C(F)(F)F)C2)c2nsnc12 (centres unmarked) [Compound A9]	–	–	at least 80%	–	–
O=C(NC1CCC1)c1ccc(C2=NOC(c3cc(Cl)cc(Cl)c3)(C(F)(F)F)C2)c2nsnc12 (centres unmarked) [Compound A24]	at least 80%	–	at least 80%	at least 80%	–
CCNC(=O)c1ccc(C2=NOC(c3cc(Cl)cc(Cl)c3)(C(F)(F)F)C2)c2nsnc12 (centres unmarked) [Compound A3]	at least 80%	at least 80%	–	–	–
O=C(NC1C[S+]([O-])C1)c1ccc(C2=NOC(c3cc(Cl)cc(Cl)c3)(C(F)(F)F)C2)c2nsnc12 (centres unmarked) [Compound A13]	at least 80%	–	at least 80%	at least 80%	at least 80%
O=C(NC1CC2CCC1C2)c1ccc(C2=NOC(c3cc(Cl)cc(Cl)c3)(C(F)(F)F)C2)c2nsnc12 (centres unmarked) [Compound A23]	–	–	at least 80%	–	–
COc1ccc(CNC(=O)c2ccc(C3=NOC(c4cc(Cl)cc(Cl)c4)(C(F)(F)F)C3)c3nsnc23)cc1 (centres unmarked) [Compound A12]	–	–	–	at least 80%	–
O=C(NC1CSC1)c1ccc(C2=NOC(c3cc(Cl)cc(Cl)c3)(C(F)(F)F)C2)c2nsnc12 (centres unmarked) [Compound A22]	at least 80%	–	at least 80%	at least 80%	at least 80%
CC1(NC(=O)c2ccc(C3=NOC(c4cc(Cl)cc(Cl)c4)(C(F)(F)F)C3)c3nsnc23)CSC1 (centres unmarked) [Compound A19]	at least 80%	–	–	–	–

From patent publication US8859592B2, “Insecticidal compounds” (Syngenta Crop Protection LLC, priority 2009, dated 2014)
